Some of the results follow. These are raw signals, not scaled to a control.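 In the initial screen, polymyxin B was used at a concentration that permeabilizes Salmonella's outer membrane but not its inner membrane. Maximum growth was set by DMSO wells with or without polymyxin B. Since plates varied, data were ranked per plate, and compounds giving the lowest OD600 advanced as hits.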
Test system: Salmonella enterica serovar Typhimurium SL1344
Assay: bacterial growth OD600 after 18 h with compound and polymyxin B; higher = more bacterial growth (less inhibition)
Conditions: 50 µM, Mueller-Hinton broth

SMILES | bacterial growth OD600 (polymyxin B 0.75 µg/mL) | bacterial growth OD600 (polymyxin B 1 µg/mL)
CN(Cc1ccn[nH]1)C(=O)c1ccc2oc(-c3cccc(F)c3)nc2c1 | 0.037 | 
COc1ccc(CCC2CCCN(C(=O)CCSC)C2)cc1 (stereo unspecified) | 0.519 | 
COCCCNc1ncnc2sc(C(=O)N(C)CC(C)C)c(C)c12 | 0.838 | 
CCC(NC(=O)CCc1nnc(Cc2cc(OC)ccc2OC)o1)c1ccc(F)cc1 (stereo unspecified) |  | 0.705
O=C(CC1CC1)N1CCCC(CCc2ccccc2)C1 (stereo unspecified) | 0.64 | 
Cc1c(C(C)NC2CCN(Cc3ccccn3)CC2)cnn1-c1ccc(F)cc1F (stereo unspecified) |  | 0.928
COc1cccc(OC)c1-c1cnnc(NCc2cccc(C(F)(F)F)c2)n1 |  | 0.009
COc1cc(=O)n2c(c1C(=O)NCc1ccc3c(c1)OCO3)CCN(C(=O)c1ccccc1C)CC2 | 0.835 | 
Fc1cccc(-c2noc3c2CN(Cc2cccn2-c2ccccn2)CC3)c1 | 0.553 | 
CC(C)(C)c1ccc(-n2ncc3c2CCCC3NC(=O)CCn2cnnn2)cc1 (stereo unspecified) |  | 0.816
Cc1nc(C)c(C(=O)N2CCC3(CC2)CC3C(=O)NCC2(c3ccccc3)CCOCC2)s1 (stereo unspecified) | 0.91 | 
CCOC(=O)C1(Cc2ccc(OC)cc2)CCN(C(=O)C(C)Oc2ccccc2)CC1 (stereo unspecified) | 0.192 | 
Fc1ccc(Cc2noc(-c3ccc(N4CCCCO4)nc3)n2)cc1 | 0.58 | 
COc1cccc(C2c3[nH]c4ccccc4c3CCN2Cc2ccco2)c1OC (stereo unspecified) |  | 0.008
CN(CC(O)c1ccccc1)C(=O)c1cc(NS(C)(=O)=O)cc2ncn(CCc3ccccc3)c12 (stereo unspecified) | 0.791 | 
Clc1ccc2nc(CN3CCCC(N4CCOCC4)C3)ccc2c1 (stereo unspecified) |  | 1.11

SMILES | bacterial growth OD600 (polymyxin B 0.75 µg/mL) | bacterial growth OD600 (polymyxin B 1 µg/mL)
COc1ccc(CCN2CCCC(CN(C)Cc3ccc(OC)cc3F)C2)cc1 (stereo unspecified) | 0.684 | 
COc1cccc(CCC2CCCN(Cc3nccn3C)C2)c1 (stereo unspecified) | 0.895 | 
O=C(NCc1cccnc1Oc1ccccc1)C1CC(=O)N(C2CC2)C1 (stereo unspecified) |  | 1.01
O=C(CC1(c2cccc(C(F)(F)F)c2)CC(=O)N(C2CC2)C1=O)N(CC1CCC1)CC1CCCO1 (stereo unspecified) | 0.002 | 
CCN(CC)CCN(CC)C(=O)CCc1nnc(-c2ccc3c(c2)OCO3)o1 | 0.986 | 
CN(Cc1ccccn1)c1nc2nonc2nc1NCc1ccccc1 | 0.549 | 
CCOC(=O)C1(Cc2ccc(OC)cc2)CCN(C(=O)c2ccc(C(=O)OC)cc2)CC1 | 0.662 | 
CN(C)CCN1C(=O)NC(Cc2cccc(F)c2)(C2CCN(C(=O)C3(C)CCCCC3)CC2)C1=O (stereo unspecified) | 0.836 | 
COc1ccc(-c2ccccc2NC(=O)C2CCCN2Cc2nccn2C)cc1 (stereo unspecified) | 0.705 | 
CN(C(=O)c1ccn(C)n1)C(Cc1ccccc1)C1CCN(C(=O)c2ccc3c(c2)OCCO3)CC1 (stereo unspecified) | 0.886 | 
NC(=O)C1CCCN(Cc2c(C(=O)N3CCc4ccccc4C3)nc3ccc(Cl)cn23)C1 (stereo unspecified) | 0.83 | 
COc1cccc(CC2(CO)CCCN(Cc3cccc(OC)c3OC)C2)c1 (stereo unspecified) |  | 0.799
CSCCC(=O)N1CCCC(N2CCN(c3cccc(C(F)(F)F)c3)CC2)C1 (stereo unspecified) |  | 0.922
CCn1ccnc1CN1CCCC(CNC(=O)C2(c3ccc(Cl)cc3)CC2)C1 (stereo unspecified) |  | 0.81
CC(C)Cc1cn[nH]c1C1CCCN(Cc2cc(Cl)ccc2O)C1 (stereo unspecified) | 0.031 | 

Source: the supplement of paper PMC12889115
